Measured values taken from the supplement of paper PMC12823440, “Inhibitors supercharge kinase turnover through native proteolytic circuits” (Nature, 2025).
The list shows a part of the results. Hit calls seldom repeat between salt and free forms of one compound.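 In K562 cells expressing nanoluciferase-fused kinases, luminescence was recorded at 4 h intervals between 2 and 18 h, normalized as percent of control with DMSO at 100% and a positive control at 0%. A significant (2 sigma) signal drop marks a time point as decreased. The authors' rule for a hit is not shown and takes in more than the number of time points.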

The chains behind the UniProt entries cited, without tags or fusion partners. Where a name states a change or a piece, a line headed by the entry shows the natural chain unless it says otherwise.
UniProt Q13555: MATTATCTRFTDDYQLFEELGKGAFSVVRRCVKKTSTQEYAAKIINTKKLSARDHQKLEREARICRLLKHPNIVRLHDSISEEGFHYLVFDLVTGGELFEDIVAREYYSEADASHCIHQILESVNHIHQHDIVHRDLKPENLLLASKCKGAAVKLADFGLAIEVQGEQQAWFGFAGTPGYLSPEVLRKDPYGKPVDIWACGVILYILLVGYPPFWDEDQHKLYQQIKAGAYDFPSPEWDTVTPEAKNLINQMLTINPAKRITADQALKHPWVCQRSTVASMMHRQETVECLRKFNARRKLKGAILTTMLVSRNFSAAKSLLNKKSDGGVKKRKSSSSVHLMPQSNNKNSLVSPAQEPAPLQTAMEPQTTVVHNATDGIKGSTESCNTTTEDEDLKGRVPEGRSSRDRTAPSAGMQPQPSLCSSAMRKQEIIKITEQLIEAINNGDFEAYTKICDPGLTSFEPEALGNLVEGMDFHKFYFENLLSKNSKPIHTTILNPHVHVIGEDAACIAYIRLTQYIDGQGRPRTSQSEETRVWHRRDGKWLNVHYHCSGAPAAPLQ
UniProt P11802: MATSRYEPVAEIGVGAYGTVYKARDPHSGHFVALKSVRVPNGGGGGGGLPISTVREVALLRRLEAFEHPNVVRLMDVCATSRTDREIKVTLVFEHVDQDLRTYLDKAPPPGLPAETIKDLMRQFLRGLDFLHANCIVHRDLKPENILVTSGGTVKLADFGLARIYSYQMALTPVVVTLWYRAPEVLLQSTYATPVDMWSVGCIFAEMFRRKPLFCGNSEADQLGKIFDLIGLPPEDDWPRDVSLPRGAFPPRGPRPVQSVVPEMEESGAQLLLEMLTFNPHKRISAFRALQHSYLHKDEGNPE
UniProt Q00535, whole entry, looked up: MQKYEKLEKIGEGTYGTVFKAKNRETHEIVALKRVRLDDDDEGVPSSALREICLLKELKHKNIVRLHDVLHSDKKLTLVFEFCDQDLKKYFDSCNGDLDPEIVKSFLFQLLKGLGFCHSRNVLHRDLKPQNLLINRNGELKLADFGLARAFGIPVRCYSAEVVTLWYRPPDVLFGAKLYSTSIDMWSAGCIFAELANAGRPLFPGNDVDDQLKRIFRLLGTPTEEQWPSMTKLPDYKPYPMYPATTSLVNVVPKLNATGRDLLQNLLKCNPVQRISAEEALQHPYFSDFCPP
UniProt Q00534, whole entry: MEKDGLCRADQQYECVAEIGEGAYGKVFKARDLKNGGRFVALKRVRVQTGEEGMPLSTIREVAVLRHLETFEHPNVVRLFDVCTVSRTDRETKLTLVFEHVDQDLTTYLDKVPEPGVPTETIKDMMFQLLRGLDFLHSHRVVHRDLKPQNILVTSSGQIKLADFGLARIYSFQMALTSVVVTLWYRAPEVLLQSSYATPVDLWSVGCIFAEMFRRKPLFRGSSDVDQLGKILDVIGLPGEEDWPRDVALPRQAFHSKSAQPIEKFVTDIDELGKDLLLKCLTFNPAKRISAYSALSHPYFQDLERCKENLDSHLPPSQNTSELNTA
UniProt P50613: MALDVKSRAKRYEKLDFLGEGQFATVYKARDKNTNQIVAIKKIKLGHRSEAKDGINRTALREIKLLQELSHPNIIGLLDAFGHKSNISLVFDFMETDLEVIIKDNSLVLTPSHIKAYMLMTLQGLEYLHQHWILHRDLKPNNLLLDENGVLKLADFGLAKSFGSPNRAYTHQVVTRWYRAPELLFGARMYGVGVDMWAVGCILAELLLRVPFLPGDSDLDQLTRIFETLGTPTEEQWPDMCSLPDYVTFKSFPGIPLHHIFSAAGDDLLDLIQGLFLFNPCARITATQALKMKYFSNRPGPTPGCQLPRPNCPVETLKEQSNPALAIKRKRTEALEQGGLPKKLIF
UniProt P50750, whole entry: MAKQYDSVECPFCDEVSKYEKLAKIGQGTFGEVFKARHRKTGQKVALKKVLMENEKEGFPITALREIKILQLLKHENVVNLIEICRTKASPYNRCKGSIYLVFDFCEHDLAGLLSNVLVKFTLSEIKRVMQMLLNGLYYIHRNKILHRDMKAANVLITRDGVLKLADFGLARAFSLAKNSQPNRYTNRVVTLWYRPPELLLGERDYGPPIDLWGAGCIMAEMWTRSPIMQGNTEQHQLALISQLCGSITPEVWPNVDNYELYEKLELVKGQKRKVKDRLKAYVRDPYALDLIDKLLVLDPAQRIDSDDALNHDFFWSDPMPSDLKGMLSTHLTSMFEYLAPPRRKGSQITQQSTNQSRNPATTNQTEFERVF
UniProt O96017, whole entry: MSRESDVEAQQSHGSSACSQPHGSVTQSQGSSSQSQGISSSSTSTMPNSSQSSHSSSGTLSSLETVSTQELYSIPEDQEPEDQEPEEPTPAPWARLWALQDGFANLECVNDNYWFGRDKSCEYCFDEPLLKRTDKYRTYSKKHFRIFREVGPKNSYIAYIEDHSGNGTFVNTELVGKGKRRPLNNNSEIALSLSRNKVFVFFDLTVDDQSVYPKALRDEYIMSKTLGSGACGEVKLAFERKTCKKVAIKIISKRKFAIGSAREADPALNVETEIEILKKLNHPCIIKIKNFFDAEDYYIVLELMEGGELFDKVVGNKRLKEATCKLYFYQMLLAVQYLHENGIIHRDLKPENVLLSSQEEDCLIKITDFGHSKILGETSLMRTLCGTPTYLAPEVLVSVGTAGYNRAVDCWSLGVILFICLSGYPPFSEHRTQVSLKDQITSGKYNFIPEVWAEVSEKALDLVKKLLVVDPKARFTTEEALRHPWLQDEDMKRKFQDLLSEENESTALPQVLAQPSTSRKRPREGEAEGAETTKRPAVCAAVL
UniProt P07333, whole entry: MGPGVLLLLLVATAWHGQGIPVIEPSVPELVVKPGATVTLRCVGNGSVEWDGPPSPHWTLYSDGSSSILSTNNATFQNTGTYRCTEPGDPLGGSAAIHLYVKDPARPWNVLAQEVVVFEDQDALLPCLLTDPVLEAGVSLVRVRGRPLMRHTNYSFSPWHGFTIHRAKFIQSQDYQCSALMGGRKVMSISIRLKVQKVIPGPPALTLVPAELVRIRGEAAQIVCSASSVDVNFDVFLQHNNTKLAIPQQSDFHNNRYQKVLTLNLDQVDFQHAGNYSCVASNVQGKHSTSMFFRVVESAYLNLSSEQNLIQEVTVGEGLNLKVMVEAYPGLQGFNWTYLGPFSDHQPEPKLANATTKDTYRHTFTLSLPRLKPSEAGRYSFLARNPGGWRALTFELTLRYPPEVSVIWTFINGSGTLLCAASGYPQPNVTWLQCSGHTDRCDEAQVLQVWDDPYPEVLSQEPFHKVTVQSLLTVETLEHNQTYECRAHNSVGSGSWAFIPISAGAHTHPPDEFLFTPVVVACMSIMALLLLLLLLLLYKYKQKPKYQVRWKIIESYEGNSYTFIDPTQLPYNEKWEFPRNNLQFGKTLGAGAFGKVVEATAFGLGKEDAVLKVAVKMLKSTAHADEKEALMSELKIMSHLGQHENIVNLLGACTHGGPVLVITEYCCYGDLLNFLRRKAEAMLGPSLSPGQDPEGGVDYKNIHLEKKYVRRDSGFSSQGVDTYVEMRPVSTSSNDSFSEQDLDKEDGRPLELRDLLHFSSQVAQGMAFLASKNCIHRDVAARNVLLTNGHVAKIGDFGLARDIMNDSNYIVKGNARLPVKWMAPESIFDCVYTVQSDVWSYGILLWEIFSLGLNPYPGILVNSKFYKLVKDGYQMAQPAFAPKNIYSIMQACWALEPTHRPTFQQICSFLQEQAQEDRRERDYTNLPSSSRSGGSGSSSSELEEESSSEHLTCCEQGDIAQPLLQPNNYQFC
UniProt P41240: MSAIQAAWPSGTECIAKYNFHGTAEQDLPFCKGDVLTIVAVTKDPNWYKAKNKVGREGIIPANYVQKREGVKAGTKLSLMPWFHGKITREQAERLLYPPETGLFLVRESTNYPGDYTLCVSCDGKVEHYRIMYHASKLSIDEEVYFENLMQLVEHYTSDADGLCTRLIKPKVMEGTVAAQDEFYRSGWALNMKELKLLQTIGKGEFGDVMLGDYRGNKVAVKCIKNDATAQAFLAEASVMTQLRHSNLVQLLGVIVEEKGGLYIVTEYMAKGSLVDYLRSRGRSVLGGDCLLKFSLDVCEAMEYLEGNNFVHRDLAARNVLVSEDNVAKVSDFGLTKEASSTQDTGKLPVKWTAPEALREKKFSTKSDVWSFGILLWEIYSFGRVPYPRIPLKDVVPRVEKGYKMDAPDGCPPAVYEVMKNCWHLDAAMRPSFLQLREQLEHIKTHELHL
UniProt P48729: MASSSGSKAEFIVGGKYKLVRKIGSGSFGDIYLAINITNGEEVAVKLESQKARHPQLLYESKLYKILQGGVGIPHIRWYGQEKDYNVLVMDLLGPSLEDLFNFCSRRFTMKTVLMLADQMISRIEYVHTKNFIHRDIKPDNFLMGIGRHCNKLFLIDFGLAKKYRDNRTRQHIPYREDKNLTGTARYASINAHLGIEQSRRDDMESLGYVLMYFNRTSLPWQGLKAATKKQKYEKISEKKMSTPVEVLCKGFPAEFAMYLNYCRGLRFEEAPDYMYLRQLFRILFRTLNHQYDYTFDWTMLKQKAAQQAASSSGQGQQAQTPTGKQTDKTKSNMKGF
UniProt P48730: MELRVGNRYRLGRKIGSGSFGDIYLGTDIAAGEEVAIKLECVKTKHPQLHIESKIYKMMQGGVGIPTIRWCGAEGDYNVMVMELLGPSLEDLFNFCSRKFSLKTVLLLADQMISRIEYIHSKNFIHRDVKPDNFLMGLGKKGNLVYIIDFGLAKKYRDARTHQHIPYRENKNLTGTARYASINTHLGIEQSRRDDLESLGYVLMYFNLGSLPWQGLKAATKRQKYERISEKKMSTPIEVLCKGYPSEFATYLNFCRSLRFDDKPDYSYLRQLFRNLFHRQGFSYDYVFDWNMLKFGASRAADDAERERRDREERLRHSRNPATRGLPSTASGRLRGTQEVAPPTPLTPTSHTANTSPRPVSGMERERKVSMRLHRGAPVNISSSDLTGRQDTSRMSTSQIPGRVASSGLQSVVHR
UniProt Q08345: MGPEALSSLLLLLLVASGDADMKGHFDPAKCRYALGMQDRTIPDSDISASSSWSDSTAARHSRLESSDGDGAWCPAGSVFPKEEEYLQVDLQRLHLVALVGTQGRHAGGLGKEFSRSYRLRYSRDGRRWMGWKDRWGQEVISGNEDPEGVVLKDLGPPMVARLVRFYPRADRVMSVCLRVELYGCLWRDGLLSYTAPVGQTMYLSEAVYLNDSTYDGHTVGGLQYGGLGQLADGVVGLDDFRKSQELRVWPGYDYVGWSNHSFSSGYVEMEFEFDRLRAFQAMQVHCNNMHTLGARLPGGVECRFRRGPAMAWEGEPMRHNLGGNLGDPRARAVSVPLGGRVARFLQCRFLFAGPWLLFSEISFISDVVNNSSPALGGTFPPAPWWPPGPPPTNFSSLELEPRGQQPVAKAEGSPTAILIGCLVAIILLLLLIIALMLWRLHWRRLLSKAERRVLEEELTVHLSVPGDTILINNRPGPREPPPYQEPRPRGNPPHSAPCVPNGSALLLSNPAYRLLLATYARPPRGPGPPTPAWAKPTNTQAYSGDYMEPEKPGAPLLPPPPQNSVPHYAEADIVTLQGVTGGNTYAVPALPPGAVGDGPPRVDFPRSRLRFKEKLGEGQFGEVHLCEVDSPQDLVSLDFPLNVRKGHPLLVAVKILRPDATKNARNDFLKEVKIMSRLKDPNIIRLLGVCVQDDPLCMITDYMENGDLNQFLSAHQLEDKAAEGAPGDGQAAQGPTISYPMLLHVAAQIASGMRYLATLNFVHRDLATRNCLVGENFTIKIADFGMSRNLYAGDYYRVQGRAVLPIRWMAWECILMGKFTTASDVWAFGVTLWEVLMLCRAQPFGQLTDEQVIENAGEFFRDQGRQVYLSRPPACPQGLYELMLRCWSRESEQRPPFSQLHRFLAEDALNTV
UniProt Q9Y463, whole entry, looked up: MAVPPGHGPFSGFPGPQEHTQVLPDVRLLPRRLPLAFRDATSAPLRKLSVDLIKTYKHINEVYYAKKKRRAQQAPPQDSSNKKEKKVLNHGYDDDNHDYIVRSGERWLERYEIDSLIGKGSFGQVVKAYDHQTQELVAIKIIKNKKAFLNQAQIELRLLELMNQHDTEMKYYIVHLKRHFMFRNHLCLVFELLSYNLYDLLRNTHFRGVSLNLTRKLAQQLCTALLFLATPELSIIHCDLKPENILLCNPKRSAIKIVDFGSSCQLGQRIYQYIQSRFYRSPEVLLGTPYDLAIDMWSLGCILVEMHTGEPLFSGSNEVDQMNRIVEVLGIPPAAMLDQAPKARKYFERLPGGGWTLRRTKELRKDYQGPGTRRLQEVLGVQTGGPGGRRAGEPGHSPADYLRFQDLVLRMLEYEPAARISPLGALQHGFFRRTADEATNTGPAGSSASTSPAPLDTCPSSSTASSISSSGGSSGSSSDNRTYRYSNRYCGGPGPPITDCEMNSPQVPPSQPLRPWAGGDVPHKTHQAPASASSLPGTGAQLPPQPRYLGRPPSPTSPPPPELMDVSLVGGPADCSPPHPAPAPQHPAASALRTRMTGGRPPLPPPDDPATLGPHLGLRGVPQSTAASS

What was measured:
Experiment in all cases: kinase-Nluc reporter destabilization hit call (1 = scored as downregulated) (binary); higher = compound decreases kinase abundance
Settings in all cases: K562; 2-18 h
[1] = system: BRAF_V600E
[2] = target: BTK (UniProt Q06187)
[3] = target: CAMK2A (UniProt Q9UQM7)
[4] = target: CAMK2G (UniProt Q13555)
[5] = target: CDK10 (UniProt Q15131)
[6] = target: CDK2 (UniProt P24941)
[7] = target: CDK3 (UniProt Q00526)
[8] = target: CDK4 (UniProt P11802)
[9] = target: CDK5 (UniProt Q00535)
[10] = target: CDK6 (UniProt Q00534)
[11] = target: CDK7 (UniProt P50613)
[12] = target: CDK9 (UniProt P50750)
[13] = target: CHEK2 (UniProt O96017)
[14] = target: CSF1R (UniProt P07333)
[15] = target: CSK (UniProt P41240)
[16] = target: CSNK1A1 (UniProt P48729)
[17] = target: CSNK1D (UniProt P48730)
[18] = target: DDR1 (UniProt Q08345)
[19] = target: DYRK1B (UniProt Q9Y463)
[20] = target: DYRK2 (UniProt Q92630)

Measured: kinase-Nluc reporter destabilization hit call

CCc1ccc(OCC(=O)Nc2ccc(F)c([N+](=O)[O-])c2)cc1 (10 µM)
inactive: [1] 0 | [2] 0 | [3] 0 | [4] 0 | [5] 0 | [6] 0 | [7] 0 | [8] 0 | [9] 0 | [10] 0 | [11] 0 | [12] 0 | [13] 0 | [14] 0 | [15] 0 | [16] 0 | [17] 0 | [18] 0 | [19] 0 | [20] 0

CN(C)S(=O)(=O)c1ccc2c(c1)/C(=C/c1cc3c([nH]1)CCCC3)C(=O)N2 (2.5 µM)
active: [18] 1
inactive: [1] 0 | [2] 0 | [3] 0 | [4] 0 | [5] 0 | [6] 0 | [7] 0 | [8] 0 | [9] 0 | [10] 0 | [11] 0 | [12] 0 | [13] 0 | [14] 0 | [15] 0 | [16] 0 | [17] 0 | [19] 0 | [20] 0

CCN(CC)c1cc2oc(=O)c(-c3nc4ccccc4o3)cc2cc1C (2.5 µM)
inactive: [1] 0 | [2] 0 | [3] 0 | [4] 0 | [5] 0 | [6] 0 | [7] 0 | [8] 0 | [9] 0 | [10] 0 | [11] 0 | [12] 0 | [13] 0 | [14] 0 | [15] 0 | [16] 0 | [17] 0 | [18] 0 | [19] 0 | [20] 0

N#Cc1c2nc3ccccc3nc2n2ccc(NC(=O)c3cccs3)cc12 (10 µM)
inactive: [1] 0 | [2] 0 | [3] 0 | [4] 0 | [5] 0 | [6] 0 | [7] 0 | [8] 0 | [9] 0 | [10] 0 | [11] 0 | [12] 0 | [13] 0 | [14] 0 | [15] 0 | [16] 0 | [17] 0 | [18] 0 | [19] 0 | [20] 0
